Measurements from PMC6395372.
No constants are given. Whether binding was seen depends on the method and setting. Some binding calls cover weakened binding; strength is not graded here.

Chains of the proteins cited; added tags and fusions are not shown. Lines headed by an entry give the natural chain unless they say otherwise; changes in a name come on top. A line that says so, or that is headed by a name, gives the form on record, which may keep a tag or linker. Residues count along the entry.
MyoVa-GTD-S1651E/S1652E (globular tail domain of myosin Va, phosphomimetic) (Q9Y4I1, form named): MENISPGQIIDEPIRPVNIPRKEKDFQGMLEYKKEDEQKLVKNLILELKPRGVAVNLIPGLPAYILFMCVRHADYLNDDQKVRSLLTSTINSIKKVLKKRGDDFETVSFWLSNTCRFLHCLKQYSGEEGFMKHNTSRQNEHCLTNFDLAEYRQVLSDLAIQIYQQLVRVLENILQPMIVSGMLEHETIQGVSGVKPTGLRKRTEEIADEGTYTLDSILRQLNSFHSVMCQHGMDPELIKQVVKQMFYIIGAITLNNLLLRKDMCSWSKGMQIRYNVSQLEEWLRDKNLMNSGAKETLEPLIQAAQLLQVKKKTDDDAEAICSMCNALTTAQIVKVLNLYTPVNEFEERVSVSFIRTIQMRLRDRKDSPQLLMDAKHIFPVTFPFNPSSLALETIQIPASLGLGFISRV
UniProt Q8TAF3, residues 451-677: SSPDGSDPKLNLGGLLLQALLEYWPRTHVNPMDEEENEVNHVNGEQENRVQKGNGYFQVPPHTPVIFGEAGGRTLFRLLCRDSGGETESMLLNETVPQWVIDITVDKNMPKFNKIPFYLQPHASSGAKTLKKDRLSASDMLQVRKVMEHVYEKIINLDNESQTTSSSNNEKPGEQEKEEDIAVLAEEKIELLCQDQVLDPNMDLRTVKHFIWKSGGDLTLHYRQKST

What was measured:
[1] = target: MyoVa-GTD-S1651E/S1652E (globular tail domain of myosin Va, phosphomimetic) (human) (UniProt Q9Y4I1); test: two-hybrid; pairwise validation; Y2H Gold cells co-transformed with pGBKT7 and pGADT7 vectors, 30°C, 4 days on QDO/X/A agar (four reporter genes); empty pGBKT7 as negative control
[2] = target: MyoVa-GTD-S1651E/S1652E (globular tail domain of myosin Va, phosphomimetic) (human) (UniProt Q9Y4I1); test: two-hybrid; Matchmaker Gold screen; bait pGBKT7-EE in S. cerevisiae Y2H Gold against a universal human-normalized cDNA library (pGADT7 preys); clones positive for HIS3, ADE2, AUR1-C and MEL1

For “WDR48 451-677, DUF3337 domain of WD repeat-containing protein 48 (two-hybrid prey, clone 30) (from UniProt Q8TAF3-1 451-677) (domain or fragment)”, the binding [1] was “binds” and the binding [2] was “binds”.
